Test results as given in PubChem BioAssay AID504467 (National Center for Advancing Translational Sciences (NCATS), 2011).
In all, about 330,000 compounds went through this assay and about 7,700 (2.3%) were called active. Inconclusive results, whose numbers are uncertain, are shown with a selection of clear calls. Calls come from the whole dose curve; as a rule, active = well fitted inhibition curve with a large enough effect; inconclusive = small, poorly fitted or top-dose-only effect, or effect the other way; inactive = flat fitted curve, though single readings scatter. Potencies of inconclusive entries are doubtful fits and often do not repeat.

Assay: qHTS screen for small molecules that inhibit ELG1-dependent DNA repair in human embryonic kidney (HEK293T) cells expressing luciferase-tagged ELG1; note: nearly all actives have a fitted effect of over 55% in size
Details: HEK293T ELG1-luciferase reporter, luminescence, 16 h, DNA damage induced by 5-fluorouridine; activity change, negative = inhibition: at 46.1 µM (top of the series)
In short: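 Cells (2,000 per well) received 5-fluorouridine plus test compound or DMSO and were incubated 16 hr at 37 °C, 5% CO2. Luciferase activity was read by luminescence 30 min after ONE-Glo addition; signal suppression marked inhibition of damage-induced ELG1 function.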
% is set by controls: 0 for no effect and ±100 for the full control effect; potency is the fitted concentration of half-maximal effect.

SMILES | Potency | activity change, negative = inhibition
Cc1ccc(N2CN=c3s/c(=C\c4cccnc4)c(=O)n3C2)cc1 | active: 2.31 µM | –
CCC(=O)Nc1ccc(C(=O)Nc2cccc(C)n2)cc1 | inconclusive: 16.4 µM [activator, partial curve] | –
O=C(COC(=O)c1ccccc1Br)NC1CCCCCCC1 | – | inactive: 0.0307%
O=C(Nc1cc(Cl)ccc1N1CCOCC1)c1ccc2c(c1)OCCO2 | inconclusive: 32.6 µM [inhibitor, single point] | –
Cn1cnnc1SCC(=O)c1ccc2c(c1)OCO2 | inconclusive: 25.9 µM [activator, partial curve, poor fit] | –
Cc1ccc(S(=O)(=O)N[C@@H](Cc2ccccc2)C(=O)CCl)cc1 | active: 16.4 µM | –
N#C/C=C(/N)N1CCN(c2ccc(Cl)c(Cl)c2)CC1 | – | inactive: -0.0633%
O=C1c2ccccc2NC(c2ccc(-c3cccc(Cl)c3)o2)N1O (centres undefined) | inconclusive: 2.31 µM [activator, full curve] | –
CC(Nc1ncnc2sccc12)c1ccccc1 (centres undefined) | inconclusive: 0.73 µM [inhibitor, partial curve, poor fit] | –
CCOc1ccc(CSCCNC(=S)Nc2ccc(OC)cc2)cc1 | inconclusive: 18.3 µM [inhibitor, single point] | –
CCN(c1ccccc1)S(=O)(=O)c1ccc(NCC2COc3ccccc3O2)nc1 (centres undefined) | inconclusive: 32.6 µM [activator, single point] | –
Cc1ccc(S(=O)(=O)N2CCC(=O)N(C(COCc3cccc(Cl)c3)C(C)C)CC2)cc1 (centres undefined) | – | inactive: -10.6%
Cc1cccc(NS(=O)(=O)c2cccc(C(=O)N3CCCCCCC3)c2)c1 | inconclusive: 23.1 µM [inhibitor, single point] | –
COc1ccc(NC(=O)c2ccc3c(c2)NC(=O)CS3)cc1 | inconclusive: 16.4 µM [activator, partial curve] | –
CN(C)c1ccccc1C(=O)c1ccccc1N(C)C | inconclusive: 18.4 µM [activator, single point] | –
COc1cccc(CC(=O)Nc2nc(-c3cc(OC)ccc3OC)cs2)c1 | – | inactive: -20%
O=C(Nc1cnc2sc3c(n2c1=O)CCCC3)c1ccc(F)cc1 | inconclusive: 18.4 µM [activator, partial curve] | –
COc1ccc(NC(=O)c2csc(Cc3ccccc3)n2)cc1 | inconclusive: 7.31 µM [activator, partial curve, poor fit] | –
CCN(CC)c1ncnc2scc(C3COc4ccccc4O3)c12 (centres undefined) | inconclusive: 29.1 µM [inhibitor, single point] | –
Cc1ccc(-c2nc3c(c(=O)c4ccccc4n3C)c(=O)n2-c2ccccc2)cc1 | – | inactive: 6.09%
COc1ccc(-n2nc(C(=O)NCC(=O)Nc3ccc(F)cc3)c3ccccc3c2=O)cc1 | inconclusive: 9.2 µM [inhibitor, partial curve] | –
CCN1CCN(C(c2cccc(OC)c2OC)c2nnnn2Cc2ccco2)CC1 (centres undefined) | – | inactive: 5.82%
CN1CCN(c2ccc(C(=O)c3ccccc3)cc2[N+](=O)[O-])CC1 | – | inactive: 1.78%
COc1ccc(CNC(=O)Nc2cccc(C)c2)cc1 | inconclusive: 13 µM [activator, partial curve] | –
CC(/C=C/c1ccc(C)o1)=C\C(=O)O | – | inactive: 6.2%

SMILES | Potency | activity change, negative = inhibition
O=C(Cc1ccccc1)NCC(=O)N/N=C/c1ccc(C(=O)O)cc1 | – | inactive: 21.5%
COc1cccc(NC(=O)Cn2cnc3c(oc4nc5c(cc43)CCCC5)c2=O)c1 | inconclusive: 7.3 µM [activator, partial curve] | –
CC(=O)Nc1ccc(Nc2nnc(-c3ccc(O)cc3)c3ccccc23)cc1 | – | inactive: -22.8%
Cc1cc(-c2ccc(C)c(S(=O)(=O)Nc3cccc(CN4CCCC4)c3)c2)on1 | – | inactive: 23.4%
CCOc1ncccc1C(=O)NCC(c1ccccc1)N(C)C (centres undefined) | – | inactive: 7.43%
Cc1ccc(NC2CCCN(C(=O)c3cccc4nccnc34)C2)cc1C (centres undefined) | – | inactive: -1.34%
CCOC(=O)C1CCN(S(=O)(=O)NC[C@H]2O[C@@H](n3cnc4c(N)ncnc43)[C@H](O)[C@@H]2O)C1 (some centres undefined) | inconclusive: 25.9 µM [activator, single point] | –
CC1CN(c2nc(Nc3ccccc3F)nc(N)c2[N+](=O)[O-])CC(C)O1 (centres undefined) | inconclusive: 18.3 µM [inhibitor, single point] | –
COc1cc(C(=O)NCc2ccc(OCCN(C)C)cc2)cc(OC)c1OC | inconclusive: 11.2 µM [activator, partial curve, poor fit] | –
O=S(=O)(Cc1ccccc1)N1CCN(Cc2ccc(F)cc2Cl)CC1 | inconclusive: 4.61 µM [activator, full curve] | –
COc1ccccc1N1CCN(C(=O)c2ccc(N3CCCCS3(=O)=O)cc2)CC1 | inconclusive: 9.2 µM [inhibitor, partial curve, poor fit] | –
NC(=O)c1ccc(NC(=O)Cc2cccs2)cc1 | inconclusive: 35.5 µM [activator, single point] | –
CCCOc1cccc(C(=O)Nc2nnn(CCC)n2)c1 | inconclusive: 9.2 µM [activator, partial curve] | –
O=C(N/N=C1\CCCc2ccccc21)c1ccccc1Cl | inconclusive: 20.6 µM [activator, partial curve] | –
Cc1cccc(-n2cnc3cc([N+](=O)[O-])ccc32)c1 | – | inactive: 24.1%
CCN(CC(=O)Nc1ccc(NC(C)=O)cc1)C(=O)/C=C/c1ccco1 | – | inactive: 29.5%
CCCOc1cc(C)c(Cl)cc1S(=O)(=O)N(CC)CC | – | inactive: -7.76%
O=C(CCC1CCCCC1)Nc1ccccc1C(=O)N1CCOCC1 | – | inactive: 8.54%
COc1ccccc1N=C1SC(C(=O)Nc2cccc(Cl)c2Cl)C(N)=C1C(N)=O (centres undefined) | inconclusive: 10.3 µM [inhibitor, partial curve] | –
O=C(Nc1ccc(N2CCOCC2)c(Cl)c1)c1ccc(F)cc1 | inconclusive: 29.1 µM [inhibitor, single point] | –
CC(OC(=O)c1cccs1)C(=O)NC1CCCCC1C (centres undefined) | – | inactive: 3.62%
O=S(=O)(c1ccc(-c2ccccc2)cc1)N1CCCC1 | inconclusive: 29.1 µM [inhibitor, single point] | –
O=C(Nc1ccc(Cl)c(Cl)c1)OCc1cncs1 | inconclusive: 1.46 µM [activator, full curve, poor fit] | –
Cc1ccc(/C=N/NC(=S)NCCc2ccccc2)s1 | – | inactive: 12.4%
CC(C)C(OC(=O)c1nsc(Cl)c1Cl)C(=O)NCc1ccccc1 (centres undefined) | – | inactive: 4.27%

One compound at a time (already shown). Order of values: Potency | activity change, negative = inhibition
CCN(CC(=O)Nc1ccc(NC(C)=O)cc1)C(=O)/C=C/c1ccco1 in the list: – | inactive: 29.5%
CCCOc1cccc(C(=O)Nc2nnn(CCC)n2)c1 in the list: inconclusive: 9.2 µM [activator, partial curve] | –
CC(=O)Nc1ccc(Nc2nnc(-c3ccc(O)cc3)c3ccccc23)cc1 in the list: – | inactive: -22.8%

Following part

SMILES | Potency | activity change, negative = inhibition
O=C(c1ccc2ccccc2n1)N1CCN(S(=O)(=O)c2ccccc2)CC1 | – | inactive: -3.85%
Cc1ccc(C)c(C(=O)CCC(=O)NNC(=O)c2cccs2)c1 | inconclusive: 16.4 µM [activator, partial curve, poor fit] | –
O=C(CCCN1C(=O)/C(=C/c2ccco2)SC1=S)Nc1cccc(C(=O)O)c1 | – | inactive: 0%
OCCNCc1cccc(OCc2ccc(Cl)cc2)c1 | – | inactive: 15.8%
Cc1cccc2cc(C#N)c(SCC(=O)NNC(=O)Cc3ccccc3)nc12 | inconclusive: 25.9 µM [activator, partial curve, poor fit] | –
Cc1ccc2cc3cc(C(=O)NC4CCCCC4)oc3nc2c1 | inconclusive: 6.51 µM [activator, partial curve] | –
CCCn1c(N2CCC(Cc3ccccc3)CC2)nc2c1c(=O)[nH]c(=O)n2C | inconclusive: 32.6 µM [inhibitor, single point] | –
CCCCCc1nnc(N)s1 | – | inactive: -10.1%
COc1ccc(NC(=S)NC2CCCC2)c(OC)c1 | inconclusive: 0.259 µM [activator, partial curve, poor fit] | –
COc1ccc(/C(N)=N/OC(=O)c2ccc(OC)c([N+](=O)[O-])c2)cc1OC | – | inactive: 4.97%
CC(=O)/C=C/c1ccccc1O | – | inactive: 6.32%
COc1cc(Cl)c(C)cc1NC(=O)c1ccccc1NC(=O)CN1CCOCC1 | active: 16.4 µM | –
Cc1cc2c(C)nc(Cc3ccccc3)nc2o1 | active: 18.4 µM | –
Cc1cccc2c(=O)cc(C(F)(F)F)[nH]c12 | inconclusive: 20.6 µM [inhibitor, single point] | –
O=C(Nc1cccnc1)c1ccc(CN2CCc3ccccc3C2)cc1 | active: 8.2 µM | –
CC(C)CC(=O)NC(Nc1ccc([N+](=O)[O-])cc1)C(Cl)(Cl)Cl (centres undefined) | inconclusive: 29.1 µM [inhibitor, single point] | –
CCC(=O)Nc1ccc(NC(=O)CSc2nnnn2-c2ccc3c(c2)OCCO3)cc1 | inconclusive: 20.6 µM [inhibitor, partial curve] | –
COc1cc(/C=C/C(=O)Nc2nc3ccc(S(=O)(=O)N(C)C)cc3s2)cc(OC)c1OC | inconclusive: 2.31 µM [inhibitor, partial curve] | –
Cc1ccc2c(c1)[C@@H]1CN(C)CC[C@@H]1N2S(=O)(=O)c1ccc([N+](=O)[O-])cc1 | inconclusive: 35.5 µM [activator, single point] | –
CN1CCN(CCCNC(=O)c2ccc(/C=C3\Oc4ccccc4N(Cc4ccc(Cl)cc4)C3=O)cc2)CC1 | inconclusive: 29.1 µM [inhibitor, single point] | –
CCOC(=O)N1CCC(NC(=O)CN(c2ccc(C(C)C)cc2)S(=O)(=O)c2c(C)nn(C)c2C)CC1 | – | inactive: 1.99%
CC1CCCC(C)N1C(=O)COC(=O)CSc1ccc(C(N)=O)cc1[N+](=O)[O-] (centres undefined) | – | inactive: 5.7%
C#CCOCCOCCOCCNc1nc(N2CCN(C(=O)[C@H]([C@@H](C)CC)n3cc([C@@H](N)CO)nn3)CC2)nc(N2CCN(C(=O)[C@H](CCCCN)n3cc([C@@H](N)C(C)CC)nn3)CC2)n1 (some centres undefined) | inconclusive: 25.9 µM [inhibitor, partial curve, poor fit] | –
c1ccc(Cn2nnnc2C(c2cccnc2)N2CCN(c3ccccc3)CC2)cc1 (centres undefined) | inconclusive: 20.6 µM [inhibitor, single point] | –
